Experiment [1] deals with T1, BiFC nYFP-BZR1 (Arabidopsis BZR1 with N-terminal Venus aa 1-173; pDESTnYFP-BZR1) (Arabidopsis).
T1 construct: Transiently expressed in Nicotiana benthamiana leaves
T1 chain: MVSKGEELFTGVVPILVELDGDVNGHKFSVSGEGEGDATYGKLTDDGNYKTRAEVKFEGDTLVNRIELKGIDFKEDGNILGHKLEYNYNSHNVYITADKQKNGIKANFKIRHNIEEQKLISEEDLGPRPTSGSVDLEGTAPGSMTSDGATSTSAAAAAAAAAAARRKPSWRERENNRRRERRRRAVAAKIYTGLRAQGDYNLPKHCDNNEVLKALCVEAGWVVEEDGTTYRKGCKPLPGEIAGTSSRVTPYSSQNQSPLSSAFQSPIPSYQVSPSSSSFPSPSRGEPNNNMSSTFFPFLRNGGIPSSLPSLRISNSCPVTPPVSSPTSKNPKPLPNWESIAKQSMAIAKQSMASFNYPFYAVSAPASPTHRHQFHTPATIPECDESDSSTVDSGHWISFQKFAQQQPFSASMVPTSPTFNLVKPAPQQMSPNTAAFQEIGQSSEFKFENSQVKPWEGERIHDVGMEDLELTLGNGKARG
Nature of the experiment: BiFC in fully expanded Nicotiana benthamiana leaves with NINJA and TPL co-expressed. The protocol: (§1) Transient BiFC experiments were performed using combinations of pDESTnYFP and pDESTcYFP plasmids, with or without plasmids for the expression of NINJA (pRSh1-NINJA) or TPL (pRSh1-TPL) and Agrobacterium-infiltration of Nicotiana benthamiana leaves. For infiltration Agrobacterium tumefaciens GV3101 strains containing the binary vectors were re-suspended from plates and prepared for transformation as described for the LUC assay. All YFP and expression strains were mixed in ratios of 1:1 (vol/vol) with the addition of strain P19 at 1/10th volume. Five leaf discs were sampled from each infiltrated leaf after 40 h. Two hours prior to sampling for microscopic fluorescence observations leaves were infiltrated with a 1 μg/ml DAPI solution to stain nuclei. YFP fluorescence and DAPI staining was detected using an Olympus Fluoview FV10i confocal laser scanning microscope. Each experiment was repeated twice.
(§2) To determine the molecular function of the PPD proteins the interactions of PPD1, NINJA, TPL, and BZR1 were studied in planta. […] The NINJA-binding TIFY motif in PPD1 was essential for this interaction. Moreover, no interaction was observed when nYFP-PPD1 and cYFP-BZR1 were co-expressed in fully expanded leaves (FIG. 8C). […]

Experiment [2] has as its target T2, BiFC nYFP-NINJA (Arabidopsis NINJA with N-terminal Venus aa 1-173; pDESTnYFP-NINJA) (Arabidopsis).
T2 construct: Transiently expressed in Nicotiana benthamiana leaves
T2 chain: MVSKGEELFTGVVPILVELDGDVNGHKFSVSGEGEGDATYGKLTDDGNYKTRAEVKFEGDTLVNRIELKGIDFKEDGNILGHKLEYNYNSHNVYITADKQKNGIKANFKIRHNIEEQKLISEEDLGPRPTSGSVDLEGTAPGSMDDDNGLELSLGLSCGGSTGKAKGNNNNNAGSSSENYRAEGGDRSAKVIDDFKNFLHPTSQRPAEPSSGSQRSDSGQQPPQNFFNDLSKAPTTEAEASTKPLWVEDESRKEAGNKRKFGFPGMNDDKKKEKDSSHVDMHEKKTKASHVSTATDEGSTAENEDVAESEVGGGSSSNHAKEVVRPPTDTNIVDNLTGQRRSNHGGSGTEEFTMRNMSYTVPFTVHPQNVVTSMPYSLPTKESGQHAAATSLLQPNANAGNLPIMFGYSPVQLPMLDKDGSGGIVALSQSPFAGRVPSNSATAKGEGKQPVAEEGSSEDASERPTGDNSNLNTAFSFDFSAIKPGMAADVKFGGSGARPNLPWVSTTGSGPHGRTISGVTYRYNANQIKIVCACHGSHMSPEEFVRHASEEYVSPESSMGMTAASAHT
The experiment in a line: BiFC in Nicotiana benthamiana leaves. The procedure: as §1

Experiment [3] has as its target T1, BiFC nYFP-BZR1 (Arabidopsis BZR1 with …). Nature of the experiment: BiFC in immature Nicotiana benthamiana leaves; the filing reads the interaction as indirect, through NINJA and TPL. The procedure: as §1, §2

B1: BiFC cYFP-PPD1-tify (PPD1Δtify, internal deletion of aa 154-186 of PPD1, with N-terminal Venus aa 156-239; pDESTcYFP-PPD1Δtify) (other)
chain: MDKQKNGIKANFKIRHNIEDGGVQLADHYQQNTPIGDGPVLLPDNHYLSYQSALSKDPNEKRDHMVLLEFVTAAGITLGMDELYKYPYDVPDYAGPRPTSGSVDLEGTAPGSMDVGVSPAKSILAKPLKLLTEEDISQLTREDCRKFLKDKGMRRPSWNKSQAIQQVLSLKALYEPGDDSGAGIFRKILVSQPVNPPRVTTTLIEPSNELEACGRVSYPEDNGACHRMDSPRSAEFSGGSGHFVSEKDGHKTTISPRSPAETSELIMHFAANPIDLPENGIFASSRMISKLISKEKMMELPQKGLEKANSSRDSGMEGQANRKVSLQRYREKRKDRKFSKAKKCPGVASSSLEMFLNCQPRMKAAYSQNLGCTGSPLHSQSPESQTKSPNLSVDLNSEGI
notes: Transiently expressed in Nicotiana benthamiana leaves; also called PPD1 with the TIFY motif deleted
Consider B1, for which, in experiment [1], the binding result is reported as “no binding”.

B2: BiFC cYFP-PPD1 (Arabidopsis PPD1 with N-terminal Venus aa 156-239; pDESTcYFP-PPD1) (other)
chain: MDKQKNGIKANFKIRHNIEDGGVQLADHYQQNTPIGDGPVLLPDNHYLSYQSALSKDPNEKRDHMVLLEFVTAAGITLGMDELYKYPYDVPDYAGPRPTSGSVDLEGTAPGSMDVGVSPAKSILAKPLKLLTEEDISQLTREDCRKFLKDKGMRRPSWNKSQAIQQVLSLKALYEPGDDSGAGIFRKILVSQPVNPPRVTTTLIEPSNELEACGRVSYPEDNGACHRMDSPRSAEFSGGSGHFVSEKDGHKTTISPRSPAETSELVGQMTIFYSGKVNVYDGIPPEKARSIMHFAANPIDLPENGIFASSRMISKLISKEKMMELPQKGLEKANSSRDSGMEGQANRKVSLQRYREKRKDRKFSKAKKCPGVASSSLEMFLNCQPRMKAAYSQNLGCTGSPLHSQSPESQTKSPNLSVDLNSEGI
notes: Transiently expressed in Nicotiana benthamiana leaves
Consider B2, for which the binding result in experiment [2] and in experiment [3] was “binds” each time.

The record behind these values is patent publication US20170314036A1 (AGRESEARCH, published 2017).
